The supplement of paper PMC10849652
This is one part of the list.

The chains behind the UniProt entries cited, without tags or fusion partners. Where a name states a change or a piece, a line headed by the entry shows the natural chain unless it says otherwise.
UniProt P33552, whole entry, looked up: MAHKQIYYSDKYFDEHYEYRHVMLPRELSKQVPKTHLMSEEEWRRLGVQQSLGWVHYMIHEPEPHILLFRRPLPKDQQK
UniProt Q9BQT9: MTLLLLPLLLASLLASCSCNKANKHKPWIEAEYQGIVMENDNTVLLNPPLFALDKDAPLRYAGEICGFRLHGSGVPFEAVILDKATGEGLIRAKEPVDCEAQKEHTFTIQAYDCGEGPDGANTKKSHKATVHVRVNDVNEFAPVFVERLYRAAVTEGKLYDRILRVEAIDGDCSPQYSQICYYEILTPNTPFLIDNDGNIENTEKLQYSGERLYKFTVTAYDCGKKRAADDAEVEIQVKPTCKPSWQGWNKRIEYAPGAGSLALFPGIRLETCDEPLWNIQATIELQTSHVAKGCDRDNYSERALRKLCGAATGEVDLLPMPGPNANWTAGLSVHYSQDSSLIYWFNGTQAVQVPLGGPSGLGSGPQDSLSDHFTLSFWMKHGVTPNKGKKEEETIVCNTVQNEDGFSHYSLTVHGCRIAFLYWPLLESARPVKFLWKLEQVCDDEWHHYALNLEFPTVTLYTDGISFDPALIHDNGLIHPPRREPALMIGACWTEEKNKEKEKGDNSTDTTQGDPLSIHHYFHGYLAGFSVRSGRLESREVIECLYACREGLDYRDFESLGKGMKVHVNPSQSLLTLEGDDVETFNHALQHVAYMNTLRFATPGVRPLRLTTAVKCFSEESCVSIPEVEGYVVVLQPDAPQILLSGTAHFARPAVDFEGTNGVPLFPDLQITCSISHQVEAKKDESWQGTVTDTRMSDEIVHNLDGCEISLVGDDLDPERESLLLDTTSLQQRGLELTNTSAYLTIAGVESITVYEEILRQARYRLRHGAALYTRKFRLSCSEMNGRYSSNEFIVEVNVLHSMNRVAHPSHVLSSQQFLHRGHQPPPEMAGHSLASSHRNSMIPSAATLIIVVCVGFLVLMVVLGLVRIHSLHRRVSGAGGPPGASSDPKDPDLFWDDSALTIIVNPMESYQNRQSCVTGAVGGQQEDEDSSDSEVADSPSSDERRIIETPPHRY
UniProt Q9Y4C5: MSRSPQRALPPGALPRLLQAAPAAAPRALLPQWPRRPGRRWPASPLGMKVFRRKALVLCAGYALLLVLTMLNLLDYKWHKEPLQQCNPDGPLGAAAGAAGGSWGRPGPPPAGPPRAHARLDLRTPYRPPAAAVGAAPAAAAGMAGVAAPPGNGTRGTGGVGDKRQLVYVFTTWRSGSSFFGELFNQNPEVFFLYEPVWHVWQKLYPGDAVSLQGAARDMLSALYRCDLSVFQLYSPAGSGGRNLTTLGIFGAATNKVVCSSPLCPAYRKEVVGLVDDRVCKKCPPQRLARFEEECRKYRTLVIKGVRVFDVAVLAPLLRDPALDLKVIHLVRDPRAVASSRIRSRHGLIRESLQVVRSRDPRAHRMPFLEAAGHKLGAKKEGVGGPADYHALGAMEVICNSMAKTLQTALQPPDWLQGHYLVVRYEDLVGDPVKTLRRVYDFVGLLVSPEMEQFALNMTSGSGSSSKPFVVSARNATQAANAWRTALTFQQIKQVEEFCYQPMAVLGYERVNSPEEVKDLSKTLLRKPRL
UniProt Q99967: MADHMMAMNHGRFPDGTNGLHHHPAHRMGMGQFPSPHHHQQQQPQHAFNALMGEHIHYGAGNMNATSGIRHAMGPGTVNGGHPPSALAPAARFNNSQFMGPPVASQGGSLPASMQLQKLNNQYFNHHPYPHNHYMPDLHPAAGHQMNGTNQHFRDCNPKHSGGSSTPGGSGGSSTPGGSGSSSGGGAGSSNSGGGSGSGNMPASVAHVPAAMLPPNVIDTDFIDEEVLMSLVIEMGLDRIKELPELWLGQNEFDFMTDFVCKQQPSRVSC
UniProt Q5VXU3: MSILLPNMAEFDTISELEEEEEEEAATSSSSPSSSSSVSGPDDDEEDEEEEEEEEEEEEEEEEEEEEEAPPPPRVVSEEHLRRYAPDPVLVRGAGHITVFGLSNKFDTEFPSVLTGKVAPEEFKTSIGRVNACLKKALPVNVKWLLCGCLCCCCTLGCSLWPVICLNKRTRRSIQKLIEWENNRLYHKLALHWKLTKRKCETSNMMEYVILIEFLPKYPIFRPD
UniProt Q9UBR5: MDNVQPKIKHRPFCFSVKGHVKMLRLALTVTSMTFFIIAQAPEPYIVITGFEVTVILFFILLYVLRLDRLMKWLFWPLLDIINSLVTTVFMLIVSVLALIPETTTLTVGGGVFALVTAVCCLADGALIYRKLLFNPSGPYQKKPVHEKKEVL
UniProt Q8NCH0: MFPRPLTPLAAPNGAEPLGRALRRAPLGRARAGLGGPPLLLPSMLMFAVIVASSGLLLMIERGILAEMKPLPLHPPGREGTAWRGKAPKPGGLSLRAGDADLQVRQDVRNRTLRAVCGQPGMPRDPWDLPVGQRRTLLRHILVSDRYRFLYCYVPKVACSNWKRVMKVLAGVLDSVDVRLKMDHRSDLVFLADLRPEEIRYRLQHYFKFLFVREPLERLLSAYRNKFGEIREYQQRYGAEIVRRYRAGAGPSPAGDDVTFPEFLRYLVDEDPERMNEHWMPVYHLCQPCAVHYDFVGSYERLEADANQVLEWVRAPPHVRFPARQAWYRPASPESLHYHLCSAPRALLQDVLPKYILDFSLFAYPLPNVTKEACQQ
UniProt Q15846: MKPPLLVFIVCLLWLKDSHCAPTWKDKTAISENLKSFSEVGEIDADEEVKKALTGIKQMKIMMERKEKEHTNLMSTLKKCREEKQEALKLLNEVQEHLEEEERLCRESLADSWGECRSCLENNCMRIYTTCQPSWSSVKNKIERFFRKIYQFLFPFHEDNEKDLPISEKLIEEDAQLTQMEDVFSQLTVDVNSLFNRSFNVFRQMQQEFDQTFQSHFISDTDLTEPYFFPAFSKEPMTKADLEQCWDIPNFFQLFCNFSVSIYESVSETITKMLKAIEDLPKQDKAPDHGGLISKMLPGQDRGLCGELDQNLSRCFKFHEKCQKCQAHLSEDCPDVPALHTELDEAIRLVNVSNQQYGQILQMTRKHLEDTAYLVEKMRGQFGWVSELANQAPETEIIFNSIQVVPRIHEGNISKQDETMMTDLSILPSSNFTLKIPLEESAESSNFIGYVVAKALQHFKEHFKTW
UniProt O14647: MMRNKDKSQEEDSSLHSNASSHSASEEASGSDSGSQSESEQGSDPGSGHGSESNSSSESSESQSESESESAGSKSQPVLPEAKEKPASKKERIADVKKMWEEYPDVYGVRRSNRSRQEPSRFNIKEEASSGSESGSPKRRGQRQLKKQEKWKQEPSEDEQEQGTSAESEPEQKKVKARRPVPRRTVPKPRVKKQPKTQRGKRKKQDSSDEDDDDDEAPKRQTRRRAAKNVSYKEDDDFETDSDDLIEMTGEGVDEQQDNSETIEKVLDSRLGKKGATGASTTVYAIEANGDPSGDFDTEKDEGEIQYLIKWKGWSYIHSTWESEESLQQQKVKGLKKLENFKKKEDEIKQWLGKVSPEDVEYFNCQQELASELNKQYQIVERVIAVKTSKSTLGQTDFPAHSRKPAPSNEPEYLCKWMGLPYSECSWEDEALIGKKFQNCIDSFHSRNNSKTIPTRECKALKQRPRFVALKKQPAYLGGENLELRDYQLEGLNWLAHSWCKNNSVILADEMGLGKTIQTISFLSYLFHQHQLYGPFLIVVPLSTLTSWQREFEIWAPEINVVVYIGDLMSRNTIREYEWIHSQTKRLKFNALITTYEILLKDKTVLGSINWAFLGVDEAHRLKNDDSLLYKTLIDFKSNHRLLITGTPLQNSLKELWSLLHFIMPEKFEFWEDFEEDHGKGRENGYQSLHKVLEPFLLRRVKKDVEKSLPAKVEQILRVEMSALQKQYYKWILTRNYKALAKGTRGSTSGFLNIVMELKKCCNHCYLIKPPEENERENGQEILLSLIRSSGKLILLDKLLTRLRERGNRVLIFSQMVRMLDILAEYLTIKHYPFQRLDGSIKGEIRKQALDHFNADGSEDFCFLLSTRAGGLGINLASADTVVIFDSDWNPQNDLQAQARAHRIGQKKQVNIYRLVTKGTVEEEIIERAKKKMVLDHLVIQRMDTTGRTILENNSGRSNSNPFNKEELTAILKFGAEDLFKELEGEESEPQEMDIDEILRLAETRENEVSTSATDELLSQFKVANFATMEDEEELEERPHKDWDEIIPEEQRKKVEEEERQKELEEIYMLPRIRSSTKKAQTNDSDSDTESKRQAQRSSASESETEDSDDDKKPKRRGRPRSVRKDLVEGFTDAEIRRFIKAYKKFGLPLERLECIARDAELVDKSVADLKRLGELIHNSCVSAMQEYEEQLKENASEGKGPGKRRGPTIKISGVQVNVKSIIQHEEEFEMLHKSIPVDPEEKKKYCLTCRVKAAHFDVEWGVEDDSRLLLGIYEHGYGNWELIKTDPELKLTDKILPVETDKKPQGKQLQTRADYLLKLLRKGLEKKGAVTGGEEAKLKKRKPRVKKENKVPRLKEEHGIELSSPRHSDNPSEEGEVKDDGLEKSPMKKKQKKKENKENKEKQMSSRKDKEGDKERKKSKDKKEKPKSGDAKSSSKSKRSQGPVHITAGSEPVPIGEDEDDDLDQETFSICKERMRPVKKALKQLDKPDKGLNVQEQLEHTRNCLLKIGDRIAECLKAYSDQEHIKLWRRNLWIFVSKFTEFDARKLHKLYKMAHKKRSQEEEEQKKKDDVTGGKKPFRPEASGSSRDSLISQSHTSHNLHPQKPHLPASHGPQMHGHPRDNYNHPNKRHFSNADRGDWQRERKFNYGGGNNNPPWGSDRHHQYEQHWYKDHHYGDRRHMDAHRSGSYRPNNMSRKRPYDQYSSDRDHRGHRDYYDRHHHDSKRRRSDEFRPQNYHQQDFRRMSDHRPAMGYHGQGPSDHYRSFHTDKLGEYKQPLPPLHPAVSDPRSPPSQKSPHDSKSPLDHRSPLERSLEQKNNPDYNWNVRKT
UniProt Q86X95: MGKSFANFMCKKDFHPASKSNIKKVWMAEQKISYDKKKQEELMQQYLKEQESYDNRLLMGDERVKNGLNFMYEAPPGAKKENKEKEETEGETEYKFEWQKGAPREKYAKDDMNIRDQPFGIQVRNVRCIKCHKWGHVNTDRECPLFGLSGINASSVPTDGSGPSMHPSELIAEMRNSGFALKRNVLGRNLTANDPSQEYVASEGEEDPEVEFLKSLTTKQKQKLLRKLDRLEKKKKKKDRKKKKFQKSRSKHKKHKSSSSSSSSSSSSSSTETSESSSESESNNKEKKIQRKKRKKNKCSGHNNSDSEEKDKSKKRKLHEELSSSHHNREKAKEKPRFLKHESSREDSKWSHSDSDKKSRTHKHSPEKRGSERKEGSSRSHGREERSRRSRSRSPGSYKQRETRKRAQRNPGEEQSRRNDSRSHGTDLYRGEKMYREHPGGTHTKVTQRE
UniProt Q8N0X4: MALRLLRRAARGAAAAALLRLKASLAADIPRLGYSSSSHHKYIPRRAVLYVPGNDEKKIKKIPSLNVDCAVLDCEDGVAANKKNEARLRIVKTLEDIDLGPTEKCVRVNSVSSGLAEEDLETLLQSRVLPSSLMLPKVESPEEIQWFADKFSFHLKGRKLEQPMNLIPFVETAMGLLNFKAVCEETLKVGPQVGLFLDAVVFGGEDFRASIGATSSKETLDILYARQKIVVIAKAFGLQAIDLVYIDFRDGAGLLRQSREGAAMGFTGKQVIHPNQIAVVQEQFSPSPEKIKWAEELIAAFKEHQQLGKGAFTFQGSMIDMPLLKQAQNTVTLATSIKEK
UniProt Q8IYT2: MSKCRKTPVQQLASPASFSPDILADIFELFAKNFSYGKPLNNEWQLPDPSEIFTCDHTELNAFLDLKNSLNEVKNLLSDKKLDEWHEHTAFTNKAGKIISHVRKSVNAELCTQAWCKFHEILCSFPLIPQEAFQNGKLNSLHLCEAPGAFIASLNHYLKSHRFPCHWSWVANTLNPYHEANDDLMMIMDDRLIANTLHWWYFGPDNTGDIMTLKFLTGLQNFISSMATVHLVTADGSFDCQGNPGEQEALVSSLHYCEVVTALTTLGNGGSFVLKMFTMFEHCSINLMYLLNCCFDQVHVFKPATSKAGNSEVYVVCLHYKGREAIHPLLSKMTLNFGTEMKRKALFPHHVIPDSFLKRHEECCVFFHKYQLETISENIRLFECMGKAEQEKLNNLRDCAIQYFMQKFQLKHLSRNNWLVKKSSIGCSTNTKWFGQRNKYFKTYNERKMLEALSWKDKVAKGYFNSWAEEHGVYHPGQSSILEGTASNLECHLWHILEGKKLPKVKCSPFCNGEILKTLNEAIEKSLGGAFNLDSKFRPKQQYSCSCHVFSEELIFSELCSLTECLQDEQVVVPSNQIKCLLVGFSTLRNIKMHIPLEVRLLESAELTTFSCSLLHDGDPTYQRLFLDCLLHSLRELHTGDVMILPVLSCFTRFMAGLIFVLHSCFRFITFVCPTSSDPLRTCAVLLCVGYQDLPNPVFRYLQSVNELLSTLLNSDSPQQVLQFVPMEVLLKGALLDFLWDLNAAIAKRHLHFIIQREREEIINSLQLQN
UniProt Q9BSY4: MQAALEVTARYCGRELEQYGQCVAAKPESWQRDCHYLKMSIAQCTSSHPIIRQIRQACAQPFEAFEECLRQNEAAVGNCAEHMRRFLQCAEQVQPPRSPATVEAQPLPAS

Key:
Assay in all cases: log2 fold change, soluble protein after heating vs DMSO (PISA); higher = thermal stabilisation; K562 lysate, 10 uM; active = over 0.2 and 3.5 SD of the protein, either way, in both replicates (recomputed)
[1] = compound: C#Cc1cccc(Nc2ncnc3cc(OCCOC)c(OCCOC)cc23)c1 [erlotinib]
Summary of the method: (§1)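 K562 pellets were dounce-homogenised in PBS pH 7.4 with 1 mM MgCl2, and the crude extract at 1 mg/mL protein was treated with 10 μM compound for 30 min. Aliquots were heated for 3 min across 48°C-58°C, pooled, and brought to 0.5% NP-40 at 4°C; soluble protein was the supernatant after 21,000xg for 90 min. Soluble protein was quantified by TMTpro 16plex LC-MS/MS with channel sums equalised, and reported as log2 fold change in thermal stability against DMSO controls, with values from duplicates.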

[2] = compound: C1=CC(=CC=C1C2=NC3=C(N2)C=C(C=C3)C(=O)N)OC4=CC=C(C=C4)Cl
Summary of the method: as §1

[3] = compound: C1=CC=C(C=C1)C2=NC(=C(N2)C3=CC=NC=C3)C4=CC(=C(C=C4)Cl)O
Summary of the method: as §1

[4] = compound: C1COCCN1CCN2C3=CC=CC=C3N=C2NC(=O)C4=CC(=CC=C4)[N+](=O)[O-] [IRAK-1-4 Inhibitor I]
Summary of the method: as §1

[5] = compound: CC(=O)c1cnc2ccc(-c3cc(Cl)c(O)c(Cl)c3)nc2c1N[C@H]1CC[C@H](CN(C)C)CC1
Summary of the method: as §1

[6] = compound: CC(C)(C)Cn1c(N)nc2ccc(-c3[nH]c(C(C)(C)C)nc3-c3ccc(F)cc3)nc21 [ralimetinib]
Summary of the method: as §1

[7] = compound: CC(C)(O)CC(=O)NCCn1ccc2ncnc(Nc3ccc(Oc4cccc(C(F)(F)F)c4)c(Cl)c3)c21
Summary of the method: as §1

[8] = compound: CC(C)C1=C2N=C(C=C(N2N=C1)NCC3=CC=CC=C3)NCCCCCCN
Summary of the method: as §1

[9] = compound: CC1=C(C=C(C=C1)NC(=O)C2=CC(=CC=C2)N(C)C)NC(=O)C3=CC=C(C=C3)O
Summary of the method: as §1

[10] = compound: CC1=CC=C(C=C1)SC2=C3C=C(SC3=CN=C2)C(=O)N
Summary of the method: as §1

[11] = compound: C/C(=N\NC(=O)C1=CC(=CC=C1)S(=O)(=O)N2CCOCC2)/C3=C(C=CC(=C3)Cl)O
Summary of the method: as §1

[12] = compound: C1=CC2=C(C=CC(=C2)/C=C\3/C(=O)NC(=NCC4=CC=CS4)S3)N=C1
Summary of the method: as §1

[13] = compound: C1=CC=C2C(=C1)C3=NNC4=CC=CC(=C43)C2=O
Summary of the method: as §1

[14] = compound: CC1=C(C=C(C=C1)NC(=O)C2=CC(=CC=C2)C(C)(C)C#N)NC3=CC4=C(C=C3)N=CN(C4=O)C
Summary of the method: as §1

[15] = compound: C1CCN(C1)C(=O)NC2=CC=CC(=C2)NC3=NC=C(C(=N3)NCCC4=CN=CN4)Br
Summary of the method: as §1

[16] = compound: C1CN(CCC1(CC2=CC=C(C=C2)Cl)N)C3=NC=NC4=C3C=CN4
Summary of the method: as §1

[17] = compound: CC1=C(C(CC(=O)N1)C2=CC=C(C=C2)C(F)(F)F)C(=O)NC3=C(C=C4C(=C3)C=NN4)F
Summary of the method: as §1

[18] = compound: CC1=C(C2=C(C=C1)C(=O)C3=CC=CC=C3N2CCCN)C
Summary of the method: as §1

[19] = compound: C1=CC2=NC=CN=C2C=C1/C=C/3\C(=O)NC(=O)S3
Summary of the method: as §1

[20] = compound: C=CC(=O)N1CCC[C@@H](n2nc(-c3ccc(Oc4ccccc4)cc3)c3c(N)ncnc32)C1 [ibrutinib]
Summary of the method: as §1

Measured: log2 fold change

CLCN5 isoform 2 (UniProt P51795)
inactive: [1] -0.026 | [2] 0.019 | [3] 0.25 | [4] 0.112 | [5] -0.109 | [6] 0.135 | [7] -0.157 | [8] 0.028 | [9] -0.117 | [10] -0.165

CLIP1, A0A3B3ITA2
inactive: [11] 0.025 | [12] 0.004 | [3] -0.039 | [13] -0.103 | [4] 0.121 | [6] 0.156 | [7] -0.173 | [14] 0.019 | [9] -0.215

CKS2 (UniProt P33552)
inactive: [11] 0.06 | [12] 0.038 | [13] 0.104 | [15] -0.167 | [16] 0.136 | [17] 0.029

CLSTN3 isoform 2 (UniProt Q9BQT9)
inactive: [1] -0.018 | [2] 0.003 | [3] 0.043 | [4] 0.042 | [5] 0.02 | [6] 0.036 | [7] -0.076 | [8] 0.039 | [17] -0.024 | [18] -0.065 | [14] -0.144 | [9] -0.041 | [10] -0.043

CHST2 (UniProt Q9Y4C5)
inactive: [19] 0.171 | [20] 0.092 | [5] 0.011 | [18] -0.164 | [14] -0.173 | [10] 0.077

CITED2 (UniProt Q99967)
inactive: [1] 0.235 | [2] -0.031 | [8] 0.015 | [18] -0.032

CHIC1 (UniProt Q5VXU3)
inactive: [11] -0.078 | [12] -0.044 | [13] -0.037

CHPT1 (UniProt Q8WUD6)
inactive: [19] -0.089 | [3] 0.067 | [4] -0.116 | [20] 0.085 | [6] -0.057 | [7] -0.222 | [9] 0.127

CKLF (UniProt Q9UBR5)
inactive: [3] -0.151 | [4] 0.082 | [5] 0.055 | [6] -0.076 | [7] -0.033 | [18] -0.124 | [14] 0.032 | [9] -0.04 | [10] 0.376

CLASP2 (UniProt O75122)
inactive: [11] -0.114 | [12] 0.12 | [19] -0.225 | [3] -0.044 | [13] -0.059 | [15] 0 | [16] 0.023 | [4] -0.017 | [5] -0.048 | [6] 0.075 | [7] 0.069 | [17] 0.044 | [14] -0.098 | [9] 0.001 | [10] -0.028

CHST14 (UniProt Q8NCH0)
inactive: [17] 0.022 | [18] -0.156 | [14] 0.008

CHMP4A (UniProt H0YIN6)
inactive: [19] 0.06 | [3] -0.055 | [4] 0.142 | [20] -0.077 | [5] -0.203 | [6] -0.253 | [7] -0.354 | [18] -0.055 | [14] 0.33 | [9] 0.15 | [10] -0.159

CLUL1 (UniProt Q15846)
inactive: [11] 1.3 | [12] 0.053 | [19] -0.352 | [13] 0.115 | [5] 0.056 | [17] 0.054 | [10] -0.006

Pulled one by one from the list above (2):
CLUL1 (UniProt Q15846)
inactive: [11] 1.3 | [12] 0.053 | [19] -0.352 | [13] 0.115 | [5] 0.056 | [17] 0.054 | [10] -0.006

CKLF (UniProt Q9UBR5)
inactive: [3] -0.151 | [4] 0.082 | [5] 0.055 | [6] -0.076 | [7] -0.033 | [18] -0.124 | [14] 0.032 | [9] -0.04 | [10] 0.376

Additional records.

CHD4, A0A2R8Y521
inactive: [3] 0.259 | [15] -0.033 | [16] 0.261 | [4] 0.178 | [5] -0.049 | [6] -0.175 | [7] -0.011 | [17] -0.19 | [18] 0.191 | [9] 0.228 | [10] 0.314

CHURC1-FNTB (UniProt B4DL54)
inactive: [15] -0.05 | [16] 0.055 | [14] 0.268

CHD2 (UniProt O14647)
inactive: [11] 0.003 | [12] 0.309 | [19] 0.019 | [3] 0.089 | [13] -0.031 | [15] -0.092 | [16] 0.04 | [4] -0.034 | [20] -0.104 | [5] -0.153 | [6] 0.04 | [7] -0.022 | [17] -0.012 | [18] -0.094 | [14] 0.026 | [9] 0.081 | [10] -0.086

CHD6 (UniProt Q8TD26)
inactive: [11] -0.3 | [12] -0.097 | [19] -0.011 | [3] -0.238 | [13] -0.165 | [15] -0.129 | [16] -0.044 | [4] -0.002 | [20] 0.196 | [6] 0.094 | [7] 0.017 | [17] 0.096 | [18] -0.083 | [14] 0.031 | [9] 0.115

CIR1 (UniProt Q86X95)
inactive: [3] -0.162 | [15] 0.069 | [16] -0.018 | [4] 0.082 | [5] -0.062 | [6] -0.236 | [7] 0.033 | [18] -0.162 | [14] 0 | [9] 0.067 | [10] -0.01

CLYBL (UniProt Q8N0X4)
inactive: [11] 0.114 | [12] -0.088 | [19] -0.135 | [3] 0.07 | [13] -0.231 | [15] -0.131 | [16] 0.12 | [4] 0.01 | [5] -0.169 | [6] 0.031 | [7] -0.022 | [17] 0.105 | [18] 0.034 | [14] -0.299 | [9] -0.086 | [10] 0.095

CKAP4 (UniProt Q07065)
inactive: [19] -0.015 | [15] 0.27 | [16] 0.261 | [20] 0.058 | [5] 0.001 | [18] 0.071 | [14] -0.054 | [10] 0.025

CLDN7 (UniProt O95471)
inactive: [15] -0.221 | [16] -0.081

CMTR2 (UniProt Q8IYT2)
inactive: [3] 0.042 | [4] -0.129 | [5] 0.301 | [6] -0.037 | [7] -0.001 | [17] -0.037 | [9] -0.007 | [10] -0.608

CHCHD5 (UniProt Q9BSY4)
inactive: [1] -0.039 | [2] -0.001 | [3] -0.146 | [4] -0.147 | [6] -0.033 | [7] 0.024 | [8] -0.034 | [17] -0.022 | [18] 0 | [14] -0.146 | [9] -0.029

CKMT2 (UniProt D6RHV3)
inactive: [5] -0.086 | [10] -0.009

CHCHD7 isoform 4 (UniProt Q9BUK0)
inactive: [11] -0.158 | [12] 0.048 | [19] 0.014 | [3] 0.046 | [13] -0.012 | [15] 0.006 | [16] 0.072 | [4] -0.025 | [20] -0.109 | [5] 0.008 | [6] -0.038 | [7] -0.014 | [17] 0.116 | [18] 0.002 | [14] -0.025 | [9] 0.024 | [10] -0.061

CLINT1 (UniProt Q14677)
inactive: [11] -0.111 | [12] 0.095 | [19] -0.086 | [13] 0.055 | [15] -0.114 | [16] -0.071 | [18] 0.005 | [14] -0.038

CIC (UniProt I3L1Q4)
inactive: [19] -0.03 | [20] 0.005

CISH isoform 3 (UniProt Q9NSE2)
inactive: [11] -0.018 | [12] 0.12 | [13] 0.188

CMC4 (UniProt P56277)
inactive: [1] -0.027 | [2] 0.037 | [5] 0.093 | [8] 0.013 | [17] 0.103 | [14] -0.331 | [10] -0.028
